The text below walks through data of the supplement of paper PMC10849652.

Amino acid sequences for entries named in this document (tags omitted). A change or cut given only in a name is not applied to a line headed by its entry.
UniProt O00746: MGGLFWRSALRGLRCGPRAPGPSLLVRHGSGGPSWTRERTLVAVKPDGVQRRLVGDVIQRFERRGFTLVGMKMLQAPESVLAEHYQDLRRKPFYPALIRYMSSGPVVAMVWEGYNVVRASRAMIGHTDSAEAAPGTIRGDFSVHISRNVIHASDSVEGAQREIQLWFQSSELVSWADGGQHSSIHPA
UniProt Q86UT6, whole entry, looked up: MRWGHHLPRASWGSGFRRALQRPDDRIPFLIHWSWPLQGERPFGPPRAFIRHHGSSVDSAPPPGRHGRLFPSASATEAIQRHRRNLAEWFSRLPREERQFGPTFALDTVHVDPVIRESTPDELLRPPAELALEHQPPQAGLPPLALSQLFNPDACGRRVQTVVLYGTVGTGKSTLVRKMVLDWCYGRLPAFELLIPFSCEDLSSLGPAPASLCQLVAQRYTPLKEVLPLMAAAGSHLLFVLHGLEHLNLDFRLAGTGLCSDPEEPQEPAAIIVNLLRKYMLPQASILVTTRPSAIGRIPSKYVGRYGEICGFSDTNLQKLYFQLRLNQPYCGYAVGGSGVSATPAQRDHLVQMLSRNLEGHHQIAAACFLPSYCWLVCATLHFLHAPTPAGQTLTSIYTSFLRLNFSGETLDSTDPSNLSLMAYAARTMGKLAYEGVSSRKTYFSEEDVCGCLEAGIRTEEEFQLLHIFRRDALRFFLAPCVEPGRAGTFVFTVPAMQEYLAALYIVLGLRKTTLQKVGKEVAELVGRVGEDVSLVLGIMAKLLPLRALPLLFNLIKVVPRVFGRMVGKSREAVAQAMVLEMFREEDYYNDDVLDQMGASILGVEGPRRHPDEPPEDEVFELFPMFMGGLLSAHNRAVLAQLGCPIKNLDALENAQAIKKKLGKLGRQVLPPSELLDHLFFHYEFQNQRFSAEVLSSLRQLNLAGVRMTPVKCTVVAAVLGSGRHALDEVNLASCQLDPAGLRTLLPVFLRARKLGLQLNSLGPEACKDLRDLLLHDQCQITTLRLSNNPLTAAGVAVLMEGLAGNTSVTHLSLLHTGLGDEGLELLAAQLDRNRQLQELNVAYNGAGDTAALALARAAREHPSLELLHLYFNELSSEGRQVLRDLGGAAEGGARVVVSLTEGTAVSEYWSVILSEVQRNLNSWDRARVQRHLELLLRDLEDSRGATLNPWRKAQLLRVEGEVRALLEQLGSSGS
UniProt Q9BVI4: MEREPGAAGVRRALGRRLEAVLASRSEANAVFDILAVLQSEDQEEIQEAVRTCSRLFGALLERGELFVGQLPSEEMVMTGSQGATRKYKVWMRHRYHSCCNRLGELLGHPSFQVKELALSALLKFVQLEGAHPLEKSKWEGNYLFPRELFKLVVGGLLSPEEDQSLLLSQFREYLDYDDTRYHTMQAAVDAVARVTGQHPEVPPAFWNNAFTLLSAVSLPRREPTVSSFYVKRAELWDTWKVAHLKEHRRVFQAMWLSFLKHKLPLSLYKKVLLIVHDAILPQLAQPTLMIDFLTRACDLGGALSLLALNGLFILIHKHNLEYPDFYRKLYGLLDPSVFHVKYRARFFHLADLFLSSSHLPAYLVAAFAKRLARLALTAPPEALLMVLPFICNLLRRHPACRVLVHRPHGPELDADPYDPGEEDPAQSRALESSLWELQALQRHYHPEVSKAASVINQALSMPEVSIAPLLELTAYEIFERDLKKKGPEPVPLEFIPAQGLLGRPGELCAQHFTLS
UniProt Q12980: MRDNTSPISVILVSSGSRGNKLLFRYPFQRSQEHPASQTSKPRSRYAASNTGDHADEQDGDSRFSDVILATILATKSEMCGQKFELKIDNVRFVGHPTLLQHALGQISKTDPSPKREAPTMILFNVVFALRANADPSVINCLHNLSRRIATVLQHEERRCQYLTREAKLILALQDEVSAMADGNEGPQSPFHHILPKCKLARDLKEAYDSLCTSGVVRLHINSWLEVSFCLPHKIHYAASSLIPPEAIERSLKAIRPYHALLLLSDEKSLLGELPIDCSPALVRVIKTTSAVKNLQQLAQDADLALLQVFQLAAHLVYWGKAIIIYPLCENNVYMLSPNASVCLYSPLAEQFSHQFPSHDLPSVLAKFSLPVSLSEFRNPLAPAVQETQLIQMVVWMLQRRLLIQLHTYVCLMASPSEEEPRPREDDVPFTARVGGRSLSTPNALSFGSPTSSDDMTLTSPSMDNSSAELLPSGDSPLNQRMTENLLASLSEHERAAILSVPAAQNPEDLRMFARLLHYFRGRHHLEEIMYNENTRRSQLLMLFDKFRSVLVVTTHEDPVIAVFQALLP
UniProt O75052: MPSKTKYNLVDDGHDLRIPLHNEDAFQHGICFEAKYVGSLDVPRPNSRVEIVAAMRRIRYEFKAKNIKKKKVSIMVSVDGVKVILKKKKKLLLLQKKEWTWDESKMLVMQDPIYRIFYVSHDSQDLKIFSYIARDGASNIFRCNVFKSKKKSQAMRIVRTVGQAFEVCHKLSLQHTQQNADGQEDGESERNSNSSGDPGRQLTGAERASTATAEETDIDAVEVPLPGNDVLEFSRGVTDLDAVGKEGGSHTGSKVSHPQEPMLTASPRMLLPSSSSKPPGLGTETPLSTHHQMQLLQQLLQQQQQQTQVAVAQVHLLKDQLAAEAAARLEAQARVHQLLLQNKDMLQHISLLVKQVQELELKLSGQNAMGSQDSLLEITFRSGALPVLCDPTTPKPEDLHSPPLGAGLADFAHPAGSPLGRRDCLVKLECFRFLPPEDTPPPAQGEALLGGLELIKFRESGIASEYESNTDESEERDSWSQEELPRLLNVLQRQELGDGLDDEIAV
UniProt Q8IXM6: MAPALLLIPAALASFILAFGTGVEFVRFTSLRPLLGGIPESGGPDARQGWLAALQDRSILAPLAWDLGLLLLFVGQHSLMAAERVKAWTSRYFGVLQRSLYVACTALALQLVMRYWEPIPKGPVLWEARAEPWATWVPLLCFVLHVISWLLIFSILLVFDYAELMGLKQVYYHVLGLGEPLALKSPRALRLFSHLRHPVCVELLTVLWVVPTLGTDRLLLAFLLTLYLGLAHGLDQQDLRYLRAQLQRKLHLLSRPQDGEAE
UniProt Q86YC3: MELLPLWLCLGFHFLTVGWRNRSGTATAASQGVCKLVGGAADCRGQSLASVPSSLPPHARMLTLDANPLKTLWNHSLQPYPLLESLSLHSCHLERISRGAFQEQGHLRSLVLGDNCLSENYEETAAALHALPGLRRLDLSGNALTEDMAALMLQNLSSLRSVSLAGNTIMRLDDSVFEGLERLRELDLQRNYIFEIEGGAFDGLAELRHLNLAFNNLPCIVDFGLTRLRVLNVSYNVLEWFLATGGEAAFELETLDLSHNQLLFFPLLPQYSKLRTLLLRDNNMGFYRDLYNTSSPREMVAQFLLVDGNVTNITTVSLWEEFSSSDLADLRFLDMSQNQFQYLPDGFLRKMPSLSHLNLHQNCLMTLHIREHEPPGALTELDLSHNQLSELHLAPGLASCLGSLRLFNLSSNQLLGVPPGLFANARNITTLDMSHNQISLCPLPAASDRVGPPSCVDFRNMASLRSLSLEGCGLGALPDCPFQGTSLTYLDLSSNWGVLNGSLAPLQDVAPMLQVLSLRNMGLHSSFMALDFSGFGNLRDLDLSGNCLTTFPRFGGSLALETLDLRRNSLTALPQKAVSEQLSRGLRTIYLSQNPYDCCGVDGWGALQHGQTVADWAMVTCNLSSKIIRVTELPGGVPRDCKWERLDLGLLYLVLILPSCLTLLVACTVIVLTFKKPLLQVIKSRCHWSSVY
UniProt P51956: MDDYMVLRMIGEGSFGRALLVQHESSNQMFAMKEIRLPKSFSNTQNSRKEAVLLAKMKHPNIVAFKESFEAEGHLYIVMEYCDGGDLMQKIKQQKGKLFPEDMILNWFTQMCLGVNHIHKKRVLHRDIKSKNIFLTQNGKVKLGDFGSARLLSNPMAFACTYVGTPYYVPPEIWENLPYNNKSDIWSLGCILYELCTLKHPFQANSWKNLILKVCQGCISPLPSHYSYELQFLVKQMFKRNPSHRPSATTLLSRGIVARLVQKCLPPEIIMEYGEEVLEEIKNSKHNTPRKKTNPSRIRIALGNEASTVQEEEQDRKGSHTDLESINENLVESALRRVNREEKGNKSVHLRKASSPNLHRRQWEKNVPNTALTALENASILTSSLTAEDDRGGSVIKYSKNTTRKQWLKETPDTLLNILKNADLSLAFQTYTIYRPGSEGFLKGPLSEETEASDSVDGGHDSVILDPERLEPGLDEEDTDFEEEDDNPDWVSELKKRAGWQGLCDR
UniProt O95644: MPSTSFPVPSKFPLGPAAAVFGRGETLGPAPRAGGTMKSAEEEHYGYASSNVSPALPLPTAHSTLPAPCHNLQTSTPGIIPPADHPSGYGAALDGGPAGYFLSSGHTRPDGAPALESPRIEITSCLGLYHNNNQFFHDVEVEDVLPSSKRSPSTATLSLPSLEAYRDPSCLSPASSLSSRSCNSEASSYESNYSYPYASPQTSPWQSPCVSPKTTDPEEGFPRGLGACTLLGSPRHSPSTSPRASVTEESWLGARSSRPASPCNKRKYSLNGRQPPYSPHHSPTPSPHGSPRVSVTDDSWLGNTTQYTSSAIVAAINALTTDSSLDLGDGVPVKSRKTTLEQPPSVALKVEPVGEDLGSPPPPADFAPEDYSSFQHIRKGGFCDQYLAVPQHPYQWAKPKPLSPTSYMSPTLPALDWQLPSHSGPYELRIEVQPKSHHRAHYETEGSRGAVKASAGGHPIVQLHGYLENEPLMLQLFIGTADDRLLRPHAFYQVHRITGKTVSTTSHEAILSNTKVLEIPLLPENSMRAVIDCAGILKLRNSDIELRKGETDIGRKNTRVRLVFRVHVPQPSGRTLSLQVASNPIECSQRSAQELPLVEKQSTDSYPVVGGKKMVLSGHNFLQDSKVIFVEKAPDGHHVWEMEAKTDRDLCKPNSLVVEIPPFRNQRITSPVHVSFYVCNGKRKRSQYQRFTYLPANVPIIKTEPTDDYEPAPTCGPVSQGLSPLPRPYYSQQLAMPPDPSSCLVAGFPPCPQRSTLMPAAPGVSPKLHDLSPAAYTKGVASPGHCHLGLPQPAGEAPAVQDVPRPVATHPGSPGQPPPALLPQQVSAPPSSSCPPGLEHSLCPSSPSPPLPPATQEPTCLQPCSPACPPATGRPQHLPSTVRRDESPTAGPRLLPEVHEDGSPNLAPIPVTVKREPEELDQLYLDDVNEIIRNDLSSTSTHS
UniProt P69849: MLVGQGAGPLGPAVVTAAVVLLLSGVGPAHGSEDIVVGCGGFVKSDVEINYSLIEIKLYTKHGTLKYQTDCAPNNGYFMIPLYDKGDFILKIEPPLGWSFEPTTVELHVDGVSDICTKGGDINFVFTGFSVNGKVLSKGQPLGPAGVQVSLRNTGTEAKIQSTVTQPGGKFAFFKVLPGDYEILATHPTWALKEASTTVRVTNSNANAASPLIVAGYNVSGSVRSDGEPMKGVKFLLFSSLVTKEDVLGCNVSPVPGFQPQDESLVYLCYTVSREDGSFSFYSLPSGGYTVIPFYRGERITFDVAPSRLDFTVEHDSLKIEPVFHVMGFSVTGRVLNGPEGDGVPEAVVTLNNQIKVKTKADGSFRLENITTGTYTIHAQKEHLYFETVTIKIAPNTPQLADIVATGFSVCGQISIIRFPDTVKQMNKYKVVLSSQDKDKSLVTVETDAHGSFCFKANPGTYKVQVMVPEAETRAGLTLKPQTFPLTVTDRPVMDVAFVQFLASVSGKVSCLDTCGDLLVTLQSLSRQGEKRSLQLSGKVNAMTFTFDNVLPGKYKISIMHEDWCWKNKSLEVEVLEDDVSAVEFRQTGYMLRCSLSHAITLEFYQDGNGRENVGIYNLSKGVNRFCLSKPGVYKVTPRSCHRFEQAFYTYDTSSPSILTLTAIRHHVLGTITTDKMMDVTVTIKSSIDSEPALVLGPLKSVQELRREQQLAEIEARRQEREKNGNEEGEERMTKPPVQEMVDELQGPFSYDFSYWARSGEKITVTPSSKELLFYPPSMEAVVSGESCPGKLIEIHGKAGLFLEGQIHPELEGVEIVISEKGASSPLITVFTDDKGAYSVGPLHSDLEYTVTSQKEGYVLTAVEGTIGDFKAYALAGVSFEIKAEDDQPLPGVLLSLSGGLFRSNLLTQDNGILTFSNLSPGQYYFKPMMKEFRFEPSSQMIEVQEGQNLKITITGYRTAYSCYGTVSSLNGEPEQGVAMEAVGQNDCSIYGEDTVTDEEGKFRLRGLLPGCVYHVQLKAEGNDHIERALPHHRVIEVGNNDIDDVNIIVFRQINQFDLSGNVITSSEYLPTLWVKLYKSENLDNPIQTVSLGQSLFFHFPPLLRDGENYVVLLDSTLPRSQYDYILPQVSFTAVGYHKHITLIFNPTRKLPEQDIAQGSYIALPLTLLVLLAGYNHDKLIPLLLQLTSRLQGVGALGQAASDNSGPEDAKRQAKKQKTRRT
UniProt Q9NPE3: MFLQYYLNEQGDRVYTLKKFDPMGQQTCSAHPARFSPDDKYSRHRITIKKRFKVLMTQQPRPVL

Common to all, as to experiment: log2 fold change, soluble protein after heating vs DMSO (PISA); higher = thermal stabilisation; K562 cells, 10 uM, 30 min; active = over 0.2 and 3.5 SD of the protein, either way, in both replicates (recomputed)
Compound in assay [1]: CC(C)C1=C2N=C(C=C(N2N=C1)NCC3=CC=CC=C3)NCCCCCCN
Summed up: (§1)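 K562 cells at 2×10^6 cells/mL were exposed to 10 μM compound for 30 min, then aliquots were heated for 3 min across 48°C-58°C, pooled, and extracted in PBS containing 0.5% NP-40 at 4°C. The supernatant after 21,000xg for 90 min was taken as soluble protein and measured by TMTpro 16plex LC-MS/MS with channel sums equalised. Thermal stability is reported relative to control samples, with values from duplicates. Fold changes are given on a log2 scale.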

Compound in the next assay: C=CC(=O)N1CCC[C@@H](n2nc(-c3ccc(Oc4ccccc4)cc3)c3c(N)ncnc32)C1 [ibrutinib]
The method, boiled down:
as §1

Compound in assay [2]: CC(=O)c1cnc2ccc(-c3cc(Cl)c(O)c(Cl)c3)nc2c1N[C@H]1CC[C@H](CN(C)C)CC1
The method, boiled down: as §1

Compound in assay [3]: CC1=C(C2=C(C=C1)C(=O)C3=CC=CC=C3N2CCCN)C
Summed up:
as §1

Compound in another assay: C1COCCN1CCN2C3=CC=CC=C3N=C2NC(=O)C4=CC(=CC=C4)[N+](=O)[O-] [IRAK-1-4 Inhibitor I]
Summed up:
as §1

Compound in assay [4]: CC(C)(O)CC(=O)NCCn1ccc2ncnc(Nc3ccc(Oc4cccc(C(F)(F)F)c4)c(Cl)c3)c21
Summed up: as §1

Compound in the next assay: CC(C)N(C[C@H]1O[C@@H](n2cnc3c(N)ncnc32)[C@H](O)[C@@H]1O)[C@H]1C[C@@H](CCc2nc3cc(C(C)(C)C)ccc3[nH]2)C1 [pinometostat]
Summed up: as §1

Compound in a further assay: CC(C)(C)Cn1c(N)nc2ccc(-c3[nH]c(C(C)(C)C)nc3-c3ccc(F)cc3)nc21 [ralimetinib]
Summed up: as §1

Compound in assay [5]: CC(C)C[C@@H](C=O)NC(=O)[C@H](CC(C)C)NC(=O)[C@H](CC(C)C)NC(=O)OCc1ccccc1
The method, boiled down: as §1

Compound in assay [6]: CC1=C(C(CC(=O)N1)C2=CC=C(C=C2)C(F)(F)F)C(=O)NC3=C(C=C4C(=C3)C=NN4)F
Summed up:
as §1

The other results are listed elsewhere or left out. Residues, ends and D or L forms follow the SMILES beside them. *: point of attachment. Cbz = O=C(OCc1ccccc1)*

On to NOL9 (UniProt Q5SY16), for which the log2 fold change in [1] is inactive: -0.03.

NOTCH2 (UniProt Q04721): the log2 fold change was inactive: -0.27 with ibrutinib, inactive: -0.114 in [2], inactive: -0.336 in assay [1] and inactive: 0.046 in assay [3].

Turning to NFKBIA (UniProt P25963), the log2 fold change in [1] was inactive: -0.589.

Consider NMRK1 (UniProt Q9NWW6), for which the log2 fold change in assay [1] is inactive: -0.131.

Take NFE2L1 (UniProt Q14494): the log2 fold change was inactive: -0.066 in the assay with IRAK-1-4 Inhibitor I; inactive: -0.061 in assay [4]; inactive: 0.328 in [1]; inactive: 0.027 with pinometostat; inactive: -0.16 in assay [3].

Consider NME4 (UniProt O00746), for which the log2 fold change with ralimetinib was inactive: 0.004; in assay [1], inactive: -0.119; in [5], inactive: 0.034.

In the case of NLRX1 (UniProt Q86UT6), the log2 fold change with IRAK-1-4 Inhibitor I was inactive: 0.177; in assay [4], inactive: 0.045; in assay [1] it was inactive: 0.04; in the assay with pinometostat it was inactive: 0.196; in [6], inactive: -0.071; in [3], inactive: -0.025.

Regarding NEURL4 (UniProt Q96JN8), the log2 fold change is inactive: 0.23 with ibrutinib; inactive: 0.013 in assay [2]; inactive: 0.013 with ralimetinib; inactive: 0.373 in assay [1]; inactive: 0.113 in assay [5].

NOC4L (UniProt Q9BVI4): in assay [6], the log2 fold change is inactive: -0.151.

For NR3C1 isoform 3 (UniProt P04150), the log2 fold change is inactive: 0.267 with IRAK-1-4 Inhibitor I; inactive: 0.076 in [2]; inactive: -0.21 in [4]; inactive: -0.669 in assay [1]; inactive: 0.22 with pinometostat; inactive: 0.041 in assay [6]. The log2 fold change in assay [3] is inactive: 0.046.

With NOTCH1 (UniProt P46531), the results for the log2 fold change in assay [4] and in assay [6] were inactive: -0.011 and inactive: 0.025, respectively.

NGDN (UniProt Q8NEJ9): the log2 fold change with ralimetinib was inactive: -0.126; in assay [5], inactive: 0.189; in assay [3] it was inactive: -0.098.

Turning to NPRL3 (UniProt Q12980), the log2 fold change in assay [1] was inactive: -0.264.

For NSA2 (UniProt O95478), the log2 fold change in the assay with ibrutinib is inactive: -0.113; in assay [4] it was inactive: 0.245.

For NEO1 (UniProt Q92859), the log2 fold change was inactive: -0.177 in [2]; inactive: -0.034 with ralimetinib; inactive: 0.017 in [5]; inactive: 0.062 in [6]; inactive: -0.069 in assay [3].

As to NRBP2 (UniProt Q9NSY0), the log2 fold change was inactive: -0.015 in the assay with IRAK-1-4 Inhibitor I; inactive: -0.044 with ralimetinib; inactive: -0.101 in assay [1]; inactive: 0.043 in assay [5]; inactive: -0.004 with pinometostat.

On to NOS1AP (UniProt O75052), for which the log2 fold change in the assay with ibrutinib is inactive: -0.061; with ralimetinib it was inactive: 0.07; in assay [4] it was inactive: -0.073; in assay [1] it was inactive: -0.026; in assay [5], active: 1.38; in assay [3] it was inactive: 0.154.

Take NOSTRIN isoform 4 (UniProt Q8IVI9): the log2 fold change in [2] was inactive: 0.106; in the assay with ralimetinib it was inactive: 0.286; in assay [1], inactive: -0.486; in assay [5] it was inactive: 0.456; in assay [6] it was inactive: -0.094.

For the target NOC3L (UniProt Q8WTT2), the log2 fold change with ibrutinib was inactive: -0.073; in [2], inactive: -0.141; in [4] it was inactive: 0.1; in assay [6], inactive: 0.157.

Take NFKBIE (UniProt O00221): the log2 fold change in the assay with IRAK-1-4 Inhibitor I is inactive: 0.087; in assay [2], inactive: 0.009; with ralimetinib, inactive: 0.061; in [4] it was inactive: -0.127; in [1], inactive: 0.154; in assay [5] it was inactive: 0.033. Further, the log2 fold change is inactive: 0.017 in the assay with pinometostat, inactive: 0.033 in assay [6] and inactive: 0.029 in assay [3].

Turning to NRM (UniProt Q8IXM6), the log2 fold change was inactive: 0.059 in the assay with ibrutinib; inactive: -0.005 in [2]; inactive: -0.143 in assay [4]; inactive: -0.193 in assay [1]; inactive: -0.005 in [6]; inactive: 0.136 in assay [3].

As for NOP14 (UniProt P78316), the log2 fold change with IRAK-1-4 Inhibitor I is inactive: -0.125; in [2] it was inactive: -0.112; in assay [4], inactive: -0.143; in the assay with pinometostat, inactive: 0.078; in assay [6], inactive: -0.04; in assay [3], inactive: -0.212.

Consider NRROS (UniProt Q86YC3), for which the log2 fold change in assay [6] is inactive: -0.367.

Consider NEK3 (UniProt P51956), for which the log2 fold change with IRAK-1-4 Inhibitor I was inactive: 0.104; in [2] it was inactive: -0.184; in the assay with ralimetinib, inactive: -0.168; in assay [4], inactive: -0.015; in [1], inactive: 0.127; in assay [5], inactive: 0.098. Moreover, the log2 fold change in the assay with pinometostat is inactive: -0.015; in assay [3], inactive: 0.018.

For the target NFATC1 (UniProt O95644), the log2 fold change in assay [4] is inactive: 0.042.

Take NRSN2 (UniProt Q9GZP1): the log2 fold change was inactive: 0.091 in [4], inactive: 0.142 in assay [1] and inactive: 0.183 in assay [3].

For NKTR (UniProt P30414), the log2 fold change in the assay with ibrutinib was inactive: -0.191; in [1] it was inactive: 0.084.

For the target NIPSNAP2 (UniProt C9J7B1), the log2 fold change was inactive: 0.052 with ibrutinib and inactive: -0.389 in assay [2].

With NRIP3 (UniProt Q9NQ35), in [2], the log2 fold change is inactive: -0.007.

Take NOMO3 (UniProt P69849): the log2 fold change in the assay with IRAK-1-4 Inhibitor I is inactive: -0.037; in the assay with ibrutinib it was inactive: -0.044; in [4], inactive: 0.009; in assay [1] it was inactive: -0.121; with pinometostat, inactive: -0.01.

As to NGRN (UniProt Q9NPE2), the log2 fold change with ibrutinib was inactive: 0.037; in assay [2], inactive: -0.155; in [4] it was inactive: 0; in assay [1], inactive: -0.112; in assay [6], inactive: -0.083; in assay [3], inactive: 0.163.

Take NOL4L (UniProt Q96MY1): the log2 fold change was inactive: -0.059 in [4], inactive: 0.047 in assay [1], inactive: 0.006 in [6] and inactive: -0.008 in assay [3].

For NOP10 (UniProt Q9NPE3), the log2 fold change was inactive: -0.024 with IRAK-1-4 Inhibitor I; inactive: -0.02 with ibrutinib; inactive: 0.091 with ralimetinib; inactive: -0.069 in assay [1]; inactive: 0.198 in assay [5]; inactive: -0.028 in the assay with pinometostat. In addition, the log2 fold change in [6] was inactive: 0.047.

As to NOL3 isoform 3 (UniProt O60936), the log2 fold change is inactive: 0.142 in the assay with IRAK-1-4 Inhibitor I; inactive: -0.092 in the assay with ralimetinib; inactive: -0.153 in assay [4]; inactive: -0.014 in assay [5]; inactive: 0.287 in the assay with pinometostat; inactive: -0.17 in assay [6]. In [3], the log2 fold change is inactive: -0.323.

In the case of NMNAT3 (UniProt Q96T66), the log2 fold change was inactive: -0.088 with ibrutinib, inactive: -0.018 in [4] and inactive: 0.126 in assay [1].

Turning to NEU3 isoform 2 (UniProt Q9UQ49), the log2 fold change in assay [1] is active: -0.984.
